PubChem BioAssay AID651640 (Broad Institute, 2012)
Screen size: about 350,000 compounds; about 6,000 (1.7%) were called active. The shares of active, inactive and inconclusive entries below differ from those in the screen. Cut-off read from the data, not from the text of the source: active = CPE inhibition above about 20% (passing the limit was not always enough); inconclusive = no clear call, values can overlap the other calls; tested in BHK-21 cells.

Assay: protection of cells from dengue 2 killing – plate reader, single concentration, primary screen (AID 651640);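 note: 0% = median of neutral control wells and 100% = median of positive control wells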
Settings: DENV2-infected cells, cytopathic effect rescue, at 9.99 µM, hits give high values

Compound	CPE inhibition
O=C(NC1CCCC1)[C@H]1[C@H](CO)[C@H]2Cn3c(cccc3=O)[C@H]2N1C(=O)NC1CCCC1	inactive: 1.25%
Cc1noc(C)c1NC(=O)Nc1ccc2c(c1)C(=O)N([C@@H](C)CO)C[C@@H](C)[C@@H](CN(C)C(=O)NC(C)C)O2	inactive: -8.66%
CN1C[C@@H]2[C@@H]3C(=O)N(Cc4ccccc4)C(=O)[C@@H]3[C@](C)(C1=O)N2C(=O)c1ccc(Br)cc1	inconclusive: 20.4%
COc1ccccc1OCc1ccc(C(=O)N(C)c2ccccc2)o1	inconclusive: 49.1%
CN1C(=O)c2cc(NC(=O)Cc3cccs3)ccc2OC[C@H]2O[C@H](CC(=O)NCCc3ccncc3)CC[C@H]21	inactive: -4.42%
C[C@H]1CN([C@@H](C)CO)C(=O)Cc2cc(NC(=O)C3CC3)ccc2O[C@@H]1CN(C)S(=O)(=O)c1ccccc1	inactive: -4.42%
Nc1nc(N)nc(-c2cccc(Cl)c2)n1	inconclusive: 68.7%
C[C@H]1CN([C@@H](C)CO)C(=O)c2cccc(NS(=O)(=O)c3ccccc3)c2O[C@@H]1CN(C)S(=O)(=O)c1cccs1	inconclusive: 22.5%
CC1(C)CC(=O)C=C(c2cc3ccccc3s2)C1	inconclusive: 37%
CCOc1ccc(NCc2cccn2-c2nnc(N3CCC(C(=O)NCCCN4CCCCC4CC)CC3)s2)cc1 (stereo not given)	inactive: 0.785%
CN(CC(=O)Nc1ccc(F)cc1)C(=O)c1cc2c(s1)CCCCC2	inconclusive: 26.8%
C[C@@H]1CCCCO[C@H](CN(C)Cc2ccncc2)[C@H](C)CN([C@@H](C)CO)C(=O)c2cc(NS(=O)(=O)c3ccccc3)ccc2O1	active: 33.2%
CN(C)CC(=O)N1[C@@H]2c3ccc(-c4ccncc4)c(=O)n3C[C@H]1[C@H](CO)[C@H]2C(=O)NC1CCC1	inconclusive: 63.5%
CC(C)C#Cc1ccc([C@H]2[C@H]3CN(C(=O)NC4CCCCC4)CC(=O)N3[C@H]2CO)cc1	inconclusive: 34%
COCc1ccc(CN2CCCC(C(=O)Nc3ccccc3-c3ccc(OC)cc3)C2)o1 (stereo not given)	inconclusive: 24.7%
O=C(O)C[C@@H]1C[C@@H]2c3cc(NC(=O)C4CCC4)ccc3O[C@@H]2[C@@H](CO)O1	inactive: -11.8%
Cn1c(SCC(=O)NCC2CCCO2)nnc1-c1ccc(Cl)cc1 (stereo not given)	inconclusive: 75.9%
CO[C@@H]1CN(C)C(=O)c2ccc(NC(=O)c3ccccc3F)cc2OC[C@H](C)N(CC2CCOCC2)C[C@H]1C	inactive: 2.12%
CNC(=O)c1ccccc1NC(=O)C1CC(=O)N(c2ccc(OC)cc2)C1 (stereo not given)	inconclusive: 53.4%
CCOC(=O)N1CCN(C(=O)/C=C/c2c(C)nn(-c3ccc(F)cc3)c2Cl)CC1	inactive: 2.98%
Cc1cccc(C(=O)NC2CCN(CC(=O)Nc3cccc(Cl)c3)CC2)c1	active: 39%
O=C(Cc1cccnc1)N1CC(=O)N2[C@H](CO)[C@@H](c3ccc(C#CC4CCCC4)cc3)[C@H]2C1	inconclusive: 20.8%
COc1ccc(NC(=O)Nc2ccc3c(c2)C(=O)N([C@H](C)CO)C[C@H](C)[C@@H](CN(C)C(=O)Nc2ccc(OC)cc2)OCCCC[C@H](C)O3)cc1	inconclusive: 59.2%
COC(=O)C[C@H]1C=C[C@@H](C(C(=O)OC)C(=O)OC)CN1C(C)=O	inactive: -0.685%

Not a retest: 5 of the compounds above.
Compound	CPE inhibition
CNC(=O)c1ccccc1NC(=O)C1CC(=O)N(c2ccc(OC)cc2)C1 (stereo not given)	inconclusive: 53.4%
CCOC(=O)N1CCN(C(=O)/C=C/c2c(C)nn(-c3ccc(F)cc3)c2Cl)CC1	inactive: 2.98%
Cc1cccc(C(=O)NC2CCN(CC(=O)Nc3cccc(Cl)c3)CC2)c1	active: 39%
O=C(Cc1cccnc1)N1CC(=O)N2[C@H](CO)[C@@H](c3ccc(C#CC4CCCC4)cc3)[C@H]2C1	inconclusive: 20.8%
COc1ccc(NC(=O)Nc2ccc3c(c2)C(=O)N([C@H](C)CO)C[C@H](C)[C@@H](CN(C)C(=O)Nc2ccc(OC)cc2)OCCCC[C@H](C)O3)cc1	inconclusive: 59.2%

(continued)

Compound	CPE inhibition
O=C(Nc1ccc(F)cc1)N1C[C@@H]2[C@H](c3ccccc31)[C@@H](CO)N2C(=O)Cc1cccnc1	inconclusive: 28%
CO[C@@H]1CN(C)C(=O)c2ccc(NC(=O)Nc3cc(F)ccc3F)cc2OC[C@H](C)N(C(=O)c2cnccn2)C[C@@H]1C	inconclusive: 39%
O=c1ccn([C@@H]2O[C@H](CNCc3cccc4c3sc3ccccc34)[C@@H](O)[C@H]2O)c(=O)[nH]1	inactive: -8.01%
O=C(NC(c1ccc(F)cc1)c1ccc2ccccc2n1)C1CCN(Cc2cccc(C(F)(F)F)c2)CC1 (stereo not given)	inactive: -3.42%
Cc1noc(C)c1NC(=O)N(C)C[C@H]1Oc2ccc(NC(=O)NC3CCCCC3)cc2CC(=O)N([C@H](C)CO)C[C@H]1C	active: 21.6%
Cn1cc([C@]2(O)C(=O)Nc3ccc(F)cc32)c2ccccc21	inconclusive: 31.4%
Cc1cc(N2CCN(C)CC2)nc2ccc(NC(=S)N3CCN(c4ccc(F)cc4)CC3)cc12	inactive: -5.24%
COc1cccc(CNC(=O)[C@@H]2CCCN2C(=O)[C@@H]2CCCN2C(=O)c2cccc(Cl)c2)c1	inactive: 3.11%
O=C(c1ccc(F)cc1)N1CCCCN2[C@@H](CO)[C@@H](c3ccc(C#CC4(O)CCCC4)cc3)[C@@H]2C1	active: 36.3%
C[C@H]1CN([C@@H](C)CO)C(=O)c2cccc(NC(=O)CCCCCC(=O)Nc3ccccc3N)c2O[C@@H]1CN(C)C	active: 23.4%
C/C(=N\O)C(C)(C)Nc1ccccc1F	inconclusive: 20.1%
CO[C@@H]1CN(C)C(=O)c2ccc(NC(=O)c3ccc(F)cc3)cc2OC[C@@H](C)N(C)C[C@@H]1C	inactive: 17%
CC(C)C[C@@H](COCc1ccc(Cl)cc1)N1CCN(C(=O)c2ccc(Cl)cc2Cl)CCC1=O	inactive: -4.03%
C[C@@H]1CN([C@@H](C)CO)C(=O)c2cc(N(C)C)ccc2O[C@H]1CN(C)C(=O)Nc1ccc2c(c1)OCO2	active: 40.4%
COc1ccc(NC(=O)N(C)C[C@@H]2OCCCC[C@H](C)Oc3ccc(NS(=O)(=O)c4ccc(Cl)cc4)cc3C(=O)N([C@@H](C)CO)C[C@@H]2C)cc1	inconclusive: 28.7%
CCOc1ccccc1NC(=O)NCCCCc1ccccc1	inconclusive: 25.4%
C[C@@H]1CN([C@H](C)CO)C(=O)c2cccc(NS(=O)(=O)c3ccc(F)cc3)c2O[C@@H]1CN(C)S(=O)(=O)c1ccc(Cl)cc1	inconclusive: 21%
c1ccc(CNc2nc(NCc3ccccc3)c3sccc3n2)cc1	inconclusive: 97.5%
Cc1ccc(Cn2c(O)c(N=NC(=S)Nc3ccccc3F)c3ccccc32)cc1	inactive: -9.75%
CCCNC(=O)C[C@@H]1C[C@@H]2c3cc(NS(=O)(=O)c4cccc(OC)c4)ccc3O[C@@H]2[C@@H](CO)O1	inactive: 1.11%
O=C(CN1CCN(Cc2ccccc2)CC1)Nc1cccc(S(=O)(=O)N2CCCCCC2)c1	inactive: -1.77%
CCOc1ccc(C(=O)NCC(c2ccco2)N2CCc3ccccc3C2)cc1 (stereo not given)	inconclusive: 26.4%
O=C(NCC[C@@H]1CC[C@@H](NC(=O)C2CCC2)[C@@H](CO)O1)c1cc(Cl)cc(Cl)c1	inactive: -2.04%
COCC(=O)N1[C@H](CO)[C@@H](c2ccc(-c3cccc(F)c3)cc2)[C@@H]1C#N	inconclusive: 46.7%

Compound	CPE inhibition
CN(C)c1cccc(C(=O)Nc2cc(C(F)(F)F)ccc2-n2cnc3ccccc32)c1	active: 24.9%
COc1cccc(NC(=S)NC2CC(C)(C)NC(C)(C)C2)c1	inconclusive: 39%
Cc1ccc(-c2cnc3c(c2)C(=O)N([C@H](C)CO)C[C@H](C)[C@@H](CN(C)S(C)(=O)=O)O3)cc1	inconclusive: 31.3%
C/C(=N/NC(=O)c1ccc(Br)s1)c1ccncc1	inconclusive: 37.5%
C[C@@H]1CN([C@H](C)CO)C(=O)c2cc(NC(=O)C3CC3)ccc2O[C@H]1CN(C)C(=O)Nc1cccc2ccccc12	inactive: 1.54%
CN1CCN(c2cc(=O)n(-c3ccc(Cl)cc3)c(=O)[nH]2)CC1	inconclusive: 42.7%
Cc1ccc(S(=O)(=O)N(C)C[C@H]2Oc3c(NS(=O)(=O)c4cccs4)cccc3C(=O)N([C@H](C)CO)C[C@H]2C)cc1	inactive: 5.72%
O=C(C[C@H]1C=C[C@@H](NC(=O)Nc2ccccc2F)[C@@H](CO)O1)NCc1ccc(Cl)cc1	inactive: -3.06%
CN(C)Cc1cn(CC[C@@H]2CC[C@@H](NC(=O)Nc3ccc4c(c3)OCO4)[C@@H](CO)O2)nn1	inactive: 8.3%
C/C=C/c1ccc([C@H]2[C@@H](CO)N(C(=O)CC)C23CN(C(=O)c2ccccc2)C3)cc1	active: 29.3%
C[C@@H]1CN([C@@H](C)CO)C(=O)c2cccc(NC(=O)C3CCOCC3)c2O[C@H]1CN(C)Cc1ccc(-c2ccccc2)cc1	inconclusive: 26.1%
Cc1occc1-c1nnc(SC(C)C(=O)Nc2ccccc2F)o1 (stereo not given)	inconclusive: 33%
CCCCOC(=O)Cn1c(=O)oc2ccc(C)cc21	inconclusive: 26.7%
CCCCSc1c(C)c2cc3c(cc2[nH]c1=O)OCO3	inconclusive: 25.7%
C[C@H](CO)N1C[C@H](C)[C@H](CN(C)Cc2ccc(Cl)c(Cl)c2)Oc2c(NC(=O)C3CC3)cccc2C1=O	inconclusive: 26.7%
COc1ccc([C@H]2CC(=O)C=C(c3ccc(-c4ccccc4)cc3)C2)cc1OC	inactive: 0.897%
S=C(NCCc1ccccc1)N1CCC2CC1c1c(Cl)cccc12 (stereo not given)	inconclusive: 25.9%
C[C@@H]1CN([C@H](C)CO)C(=O)c2cccc(NS(=O)(=O)c3ccc(Cl)cc3)c2O[C@@H]1CN(C)Cc1ccc(C(=O)Nc2ccccc2N)cc1	inactive: -3.51%
CN1[C@@H](CO)[C@@H]2c3ccccc3N(C(=O)Nc3cc(F)ccc3F)C[C@@H]21	inconclusive: 24.7%
CCN(CC)CCCNc1ncnc2ccccc12	inactive: 5.65%
CN(CC(=O)Nc1ccc(Cl)c(C(F)(F)F)c1)C(=O)C1(c2ccccc2)CC1	inconclusive: 23.1%
CCC(=O)N1[C@H](CO)[C@H]2c3ccccc3N(S(=O)(=O)c3ccccc3)C[C@H]21	inconclusive: 49.2%
